Assay results: article PMC5327418
These are yes or no findings as the source states them, for the method shown. In cells and extracts the contact can be indirect. Here binding means that the protein was enriched with, or labelled near, the bait; the list need not be complete.

Protein sequences, listed by entry. Tags and fused reporters are not part of them.
UniProt P32569: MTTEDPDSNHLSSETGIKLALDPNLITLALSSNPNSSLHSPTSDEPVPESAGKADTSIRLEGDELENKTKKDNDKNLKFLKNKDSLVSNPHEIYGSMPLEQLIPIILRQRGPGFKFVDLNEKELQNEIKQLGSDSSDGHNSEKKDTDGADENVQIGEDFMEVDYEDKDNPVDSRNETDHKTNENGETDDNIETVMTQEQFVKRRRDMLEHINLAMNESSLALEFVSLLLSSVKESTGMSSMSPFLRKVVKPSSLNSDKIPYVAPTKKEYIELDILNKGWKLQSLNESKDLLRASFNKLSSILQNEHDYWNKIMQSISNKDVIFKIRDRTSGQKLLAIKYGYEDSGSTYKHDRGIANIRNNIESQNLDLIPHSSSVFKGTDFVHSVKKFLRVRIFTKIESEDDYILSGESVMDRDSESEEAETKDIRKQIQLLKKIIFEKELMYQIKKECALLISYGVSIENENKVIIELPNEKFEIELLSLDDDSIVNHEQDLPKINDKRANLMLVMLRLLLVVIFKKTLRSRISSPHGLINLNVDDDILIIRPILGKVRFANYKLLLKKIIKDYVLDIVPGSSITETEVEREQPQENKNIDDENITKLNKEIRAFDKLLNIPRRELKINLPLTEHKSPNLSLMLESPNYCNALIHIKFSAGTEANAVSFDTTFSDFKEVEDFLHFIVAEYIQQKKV

B1: DNA topoisomerase 2 (protein, UniProt P06786 1-1428)
chain: MSTEPVSASDKYQKISQLEHILKRPDTYIGSVETQEQLQWIYDEETDCMIEKNVTIVPGLFKIFDEILVNAADNKVRDPSMKRIDVNIHAEEHTIEVKNDGKGIPIEIHNKENIYIPEMIFGHLLTSSNYDDDEKKVTGGRNGYGAKLCNIFSTEFILETADLNVGQKYVQKWENNMSICHPPKITSYKKGPSYTKVTFKPDLTRFGMKELDNDILGVMRRRVYDINGSVRDINVYLNGKSLKIRNFKNYVELYLKSLEKKRQLDNGEDGAAKSDIPTILYERINNRWEVAFAVSDISFQQISFVNSIATTMGGTHVNYITDQIVKKISEILKKKKKKSVKSFQIKNNMFIFINCLIENPAFTSQTKEQLTTRVKDFGSRCEIPLEYINKIMKTDLATRMFEIADANEENALKKSDGTRKSRITNYPKLEDANKAGTKEGYKCTLVLTEGDSALSLAVAGLAVVGRDYYGCYPLRGKMLNVREASADQILKNAEIQAIKKIMGLQHRKKYEDTKSLRYGHLMIMTDQDHDGSHIKGLIINFLESSFPGLLDIQGFLLEFITPIIKVSITKPTKNTIAFYNMPDYEKWREEESHKFTWKQKYYKGLGTSLAQEVREYFSNLDRHLKIFHSLQGNDKDYIDLAFSKKKADDRKEWLRQYEPGTVLDPTLKEIPISDFINKELILFSLADNIRSIPNVLDGFKPGQRKVLYGCFKKNLKSELKVAQLAPYVSECTAYHHGEQSLAQTIIGLAQNFVGSNNIYLLLPNGAFGTRATGGKDAAAARYIYTELNKLTRKIFHPADDPLYKYIQEDEKTVEPEWYLPILPMILVNGAEGIGTGWSTYIPPFNPLEIIKNIRHLMNDEELEQMHPWFRGWTGTIEEIEPLRYRMYGRIEQIGDNVLEITELPARTWTSTIKEYLLLGLSGNDKIKPWIKDMEEQHDDNIKFIITLSPEEMAKTRKIGFYERFKLISPISLMNMVAFDPHGKIKKYNSVNEILSEFYYVRLEYYQKRKDHMSERLQWEVEKYSFQVKFIKMIIEKELTVTNKPRNAIIQELENLGFPRFNKEGKPYYGSPNDEIAEQINDVKGATSDEEDEESSHEDTENVINGPEELYGTYEYLLGMRIWSLTKERYQKLLKQKQEKETELENLLKLSAKDIWNTDLKAFEVGYQEFLQRDAEARGGNVPNKGSKTKGKGKRKLVDDEDYDPSKKNKKSTARKGKKIKLEDKNFERILLEQKLVTKSKAPTKIKKEKTPSVSETKTEEEENAPSSTSSSSIFDIKKEDKDEGELSKISNKFKKISTIFDKMGSTSATSKENTPEQDDVATKKNQTTAKKTAVKPKLAKKPVRKQQKVVELSGESDLEILDSYTDREDSNKDEDDAIPQRSRRQRSSRAASVPKKSYVETLELSDDSFIEDDEEENQGSDVSFNEED
B2: Ksp1 (protein, UniProt P38691 1-1029)
chain: MTLDYEIYKEGGILNNRYQKIEDISEGSYGYVSLAKDVREKRLVAVKYIFKLEDDGQYDGPQDDENDCDSSDCDDDEDTKVDTDRHENENGNASSNNGSSREKKHNLYKHKKSLISSKVKSRLSNNICLEAMYEVDIQTKIGRHQNIAALLDFFDSYIIMEYCSGGDLYEAIKADAVPKKTKSITHIITQIMDAIEYVHNKGIYHRDIKPENILISGIDWTIKLTDWGLATTDKTSMDRNVGSERYMSPELFDSNLDIKERKEPYDCAKVDLWAMGIVFLNIVFHKNPFSIANQSDKSFCYFAANREALFDVFSTMAYDFFQVLRYSLTIDPANRDLKMMRTELQNLSEYTLDDEYYNNLDEGYEETMIDGLPPQPVPPSSAPVSLPTPISSSNKQHMPEFKKDFNFNNVNERKRSDVSQNQNVASGFFKKPSTQQQKFFNQGYNTTLSTHERAKSAPKFKFKKRNKYGRTDNQFSKPVNIEDRKKSKILKKSRKPLGIPTPNTHMNNFFHDYKARDEFNTRDFFTPPSVQHRYMEGFSNNNNKQYRQNRNYNNNNNNSNNNHGSNYNNFNNGNSYIKGWNKNFNKYRRPSSSSYTGKSPLSRYNMSYNHNNNSSINGYARRGSTTTVQHSPGAYIPPNARNHHVSPTNQFLRVPQSTAPDISTVLGGKPSYQEHYTQDSMDSEGDHDSDDVLFTLEEGDHDFVNGMDNLSINDHLPHTTVGSHNEVFVHASTNHNNNGNNNHIDTNSTTNQYHRQYIPPPLTTSLHINNNNNESNELPDLLKSPASSEAHLNLSSGPIDPILTGNIGNRYSHSSDSKELEQERRLSMEQKFKNGVYVPPHHRKSFNLGTQVPPMNMKTSNEATLSVSHNSVNFGGSYNSRRSSANESNPLHMNKALEKLSSSPGAKSSFVGFPKPLLPRNHSSTTIALQNEDVFADSNNDAIIFEDEEYEGESDKMAHGKMEGGDNESSSTSPDERQIFGPYEIYAQTFAGSTHDKKLGAGRKTSIQDEMVGSLEQYKNNWLILQQQD

Molecular target: Med17-HA (S. cerevisiae (endogenous in S288c)) (UniProt P32569)
Assay: affinity purification with mass spectrometry; CoIP of Med17-HA on anti-HA magnetic beads from cryoground yeast lysate, 2 h at 4 °C; 20 mM HEPES pH 7.5, 300 mM KOAc, 10% glycerol, 0.01% NP-40, 6 mM MnSO4, 1 mM DTT, Cyanase nuclease; parallel control CoIP from 15N-labelled wild type cells, mixing after purification (MAP); GeLC-MS/MS, three biological replicates

Binder	binding
B1	binds
B2	binds
